Measured values as given in US9458499B2, “Nucleic acid binding dyes and uses therefor” (PROMEGA CORPORATION, priority 2009, dated 2016).

Test system: human gDNA, Chemokine (C-C motif) ligand 18 amplicon
Experiment: qPCR amplification reactions with dye: standard curve and total fluorescence analysis
Assay type: biochemical
Settings: for FM (maximum fluorescence): 100 ng target, cycle 45; for Bds=FM:Fi (brightness factor): FM at 45 cycles relative to Fi of NTC at cycle 1; for Fi (initial background fluorescence): NTC at cycle 1; for FB (background fluorescence factor): inverse of Bds, % of total double stranded fluorescence; for slope of qPCR standard curve / y-intercept of qPCR standard curve: normalized to ROX, 45 cycles

Row | SMILES | FM (maximum fluorescence) | Bds=FM:Fi (brightness factor) | Fi (initial background fluorescence) | FB (background fluorescence factor) [%] | slope of qPCR standard curve | y-intercept of qPCR standard curve
1 | CCCN(CCCN(C)C)C1=C/C(=C\c2sc3cccc4c3[n+]2CCC4)c2ccccc2N1c1ccccc1 [PBI 3654, 1-((2-((3-(Dimethylamino)propyl)(propyl)amino)-1-phenylquinolin-4(1H)-ylidene)methyl)-7,8-dihydro-6H-thiazolo[5,4,3-ij]quinolin-9-ium] | 1.05e6 | 27.7 | 3.8e4 | 3.6 | 3.32 | 28.34
2 | CCCN(CCCN(C)C)c1cc(/C=C2\Sc3cccc4c3N2CCC4)c2ccccc2[n+]1Cc1ccccc1 [PBI 3677, 1-benzyl-4-((5,6-dihydrothiazolo[5,4,3-ij]quinolin-2(4H)-ylidene)methyl)-2-((3-(dimethylamino)propyl)(propyl)amino)quinolinium trifluoroacetate] | – | – | – | – | −3.35 | 26.89
3 | CCCN(CCCN(C)C)c1cc(/C=C2/Sc3ccccc3N2C)c2ccccc2[n+]1-c1ccccc1 [SYBR Green 1, reference compound] | 9.9e5 | 12.7 | 7.8e4 | 7.9 | – | –

Where a name gives a salt, the structure may show the parent alone.
